# In the supplement of paper PMC8728848:
# This is one part of the list.
# B1: Epa21 (Candida glabrata) (protein)
# chain: MGSSHHHHHHSSGLVPRGSHMASTPNIESHPQGCSPVDTSGIKPGLKMDLYRFPITPPGTGCWSWDWLTVTPDFPRSGYWKWPKIAEVDGVVGPLHLDSGHPTCDPLTSVLPHGFNYLQSITTTNFTMVLHGYFVPKQSGKYTFEFKADDALLLNLGAGNAFSCCDYNNSQYNQGEYLAYAIWSKNNQTATLYLEKGIYYPIRVFYHNRCCGAYMDVVYYFNDSPIPNRDFSGLLFSIPDSDSCDANI
# Legend:
# Assay in all cases: glycan array binding signal (z-score within array); higher = stronger binding
# Conditions in all cases: glycan notation: IUPAC condensed, linker removed
# [1] = molecular target: Neu5Ac(a2-6)Gal(b1-4)GlcNAc(b1-2)Man(a1-3)[GlcNAc(b1-4)][Neu5Ac(a2-6)Gal(b1-4)GlcNAc(b1-2)Man(a1-6)]Man(b1-4)GlcNAc(b1-4)GlcNAc
# Procedure, shortened: (§1)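 The Consortium for Functional Glycomics database supplied 3228 glycan arrays, of which those lacking an available protein sequence were dropped. The binding signal, a within-array Z-score, was averaged across arrays of the same protein sequence and across linkers. Negative scores can be read as non-binding.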
# [2] = molecular target: Neu5Ac(a2-6)Gal(b1-4)GlcNAc(b1-2)Man(a1-3)[Man(a1-6)]Man(b1-4)GlcNAc(b1-4)GlcNAc
# Procedure, shortened: as §1
# [3] = molecular target: Neu5Ac(a2-6)Gal(b1-4)GlcNAc(b1-2)Man(a1-3)[Neu5Ac(a2-3)Gal(b1-4)GlcNAc(b1-2)Man(a1-6)]Man(b1-4)GlcNAc(b1-4)GlcNAc
# Procedure, shortened: as §1
# [4] = molecular target: Neu5Ac(a2-6)Gal(b1-4)GlcNAc(b1-2)Man(a1-3)[Neu5Ac(a2-6)Gal(b1-4)GlcNAc(b1-2)Man(a1-6)]Man(b1-4)GlcNAc(b1-4)GlcNAc
# Procedure, shortened: as §1
# [5] = molecular target: Neu5Ac(a2-6)Gal(b1-4)GlcNAc(b1-2)Man(a1-3)[Neu5Ac(a2-6)Gal(b1-4)GlcNAc(b1-2)Man(a1-6)]Man(b1-4)GlcNAc(b1-4)[Fuc(a1-6)]GlcNAc
# Procedure, shortened: as §1
# [6] = molecular target: Neu5Ac(a2-6)Gal(b1-4)GlcNAc(b1-2)Man(a1-6)Man(b1-4)GlcNAc(b1-4)GlcNAc
# Procedure, shortened: as §1
# [7] = molecular target: Neu5Ac(a2-6)Gal(b1-4)GlcNAc(b1-2)Man(a1-6)[Gal(b1-4)GlcNAc(b1-2)Man(a1-3)]Man(b1-4)GlcNAc(b1-4)GlcNAc
# Procedure, shortened: as §1
# [8] = molecular target: Neu5Ac(a2-6)Gal(b1-4)GlcNAc(b1-2)Man(a1-6)[GlcNAc(b1-2)Man(a1-3)]Man(b1-4)GlcNAc(b1-4)GlcNAc
# Procedure, shortened: as §1
# [9] = molecular target: Neu5Ac(a2-6)Gal(b1-4)GlcNAc(b1-2)Man(a1-6)[Man(a1-3)]Man(b1-4)GlcNAc(b1-4)GlcNAc
# Procedure, shortened: as §1
# [10] = molecular target: Neu5Ac(a2-6)Gal(b1-4)GlcNAc(b1-2)[Neu5Ac(a2-6)Gal(b1-4)GlcNAc(b1-4)]Man(a1-3)[GlcNAc(b1-4)][Neu5Ac(a2-6)Gal(b1-4)GlcNAc(b1-2)[Neu5Ac(a2-6)Gal(b1-4)GlcNAc(b1-6)]Man(a1-6)]Man(b1-4)GlcNAc(b1-4)GlcNAc
# Procedure, shortened: as §1
# [11] = molecular target: Neu5Ac(a2-6)Gal(b1-4)GlcNAc(b1-2)[Neu5Ac(a2-6)Gal(b1-4)GlcNAc(b1-4)]Man(a1-3)[GlcNAc(b1-4)][Neu5Ac(a2-6)Gal(b1-4)GlcNAc(b1-4)Man(a1-6)]Man(b1-4)GlcNAc(b1-4)GlcNAc
# Procedure, shortened: as §1
# [12] = molecular target: Neu5Ac(a2-6)Gal(b1-4)GlcNAc(b1-2)[Neu5Ac(a2-6)Gal(b1-4)GlcNAc(b1-6)]Man(a1-6)[Neu5Ac(a2-6)Gal(b1-4)GlcNAc(b1-2)Man(a1-3)][GlcNAc(b1-4)]Man(b1-4)GlcNAc(b1-4)GlcNAc
# Procedure, shortened: as §1
# [13] = molecular target: Neu5Ac(a2-6)Gal(b1-4)GlcNAc(b1-3)Gal(b1-3)GlcNAc
# Procedure, shortened: as §1
# [14] = molecular target: Neu5Ac(a2-6)Gal(b1-4)GlcNAc(b1-3)Gal(b1-4)GlcNAc
# Procedure, shortened: as §1
# [15] = molecular target: Neu5Ac(a2-6)Gal(b1-4)GlcNAc(b1-3)Gal(b1-4)GlcNAc(b1-2)Man(a1-3)[Neu5Ac(a2-6)Gal(b1-4)GlcNAc(b1-3)Gal(b1-4)GlcNAc(b1-2)Man(a1-6)]GalNAc
# Procedure, shortened: as §1
# [16] = molecular target: Neu5Ac(a2-6)Gal(b1-4)GlcNAc(b1-3)Gal(b1-4)GlcNAc(b1-3)Gal(b1-4)GlcNAc
# Procedure, shortened: as §1
# [17] = molecular target: Neu5Ac(a2-6)Gal(b1-4)GlcNAc(b1-3)Gal(b1-4)GlcNAc(b1-3)Gal(b1-4)GlcNAc(b1-2)Man(a1-3)[Neu5Ac(a2-6)Gal(b1-4)GlcNAc(b1-3)Gal(b1-4)GlcNAc(b1-3)Gal(b1-4)GlcNAc(b1-2)Man(a1-6)]GalNAc
# Procedure, shortened: as §1
# [18] = molecular target: Neu5Ac(a2-6)Gal(b1-4)GlcNAc(b1-3)Gal(b1-4)GlcNAc(b1-3)GalNAc
# Procedure, shortened: as §1
# [19] = molecular target: Neu5Ac(a2-6)Gal(b1-4)GlcNAc(b1-3)Gal(b1-4)GlcNAc(b1-3)[Neu5Ac(a2-6)Gal(b1-4)GlcNAc(b1-3)Gal(b1-4)GlcNAc(b1-6)]GalNAc
# Procedure, shortened: as §1
# [20] = molecular target: Neu5Ac(a2-6)Gal(b1-4)GlcNAc(b1-3)Gal(b1-4)GlcNAc(b1-6)[Gal(b1-3)]GalNAc
# Procedure, shortened: as §1
# [21] = molecular target: Neu5Ac(a2-6)Gal(b1-4)GlcNAc(b1-3)Gal(b1-4)[Fuc(a1-3)]GlcNAc(b1-3)Gal(b1-4)[Fuc(a1-3)]GlcNAc
# Procedure, shortened: as §1
# [22] = molecular target: Neu5Ac(a2-6)Gal(b1-4)GlcNAc(b1-3)GalNAc
# Procedure, shortened: as §1
# [23] = molecular target: Neu5Ac(a2-6)Gal(b1-4)GlcNAc(b1-3)[Neu5Ac(a2-6)Gal(b1-4)GlcNAc(b1-6)]GalNAc
# Procedure, shortened: as §1
# [24] = molecular target: Neu5Ac(a2-6)Gal(b1-4)GlcNAc(b1-6)GalNAc
# Procedure, shortened: as §1
# [25] = molecular target: Neu5Ac(a2-6)Gal(b1-4)GlcNAc(b1-6)[Gal(b1-3)GlcNAc(b1-3)]Gal(b1-4)Glc
# Procedure, shortened: as §1
# [26] = molecular target: Neu5Ac(a2-6)Gal(b1-4)GlcNAc(b1-6)[Gal(b1-3)]GalNAc
# Procedure, shortened: as §1
# [27] = molecular target: Neu5Ac(a2-6)Gal(b1-4)GlcNAc6S
# Procedure, shortened: as §1
# Neu5Ac(a2-6)GalNAc = molecular target: Neu5Ac(a2-6)GalNAc
# Procedure, shortened: as §1
# [28] = molecular target: Neu5Ac(a2-6)GalNAc(b1-4)GlcNAc
# Procedure, shortened: as §1
# [29] = molecular target: Neu5Ac(a2-6)GalNAc(b1-4)GlcNAc6S
# Procedure, shortened: as §1
# [30] = molecular target: Neu5Ac(a2-6)GlcNAc(b1-4)GlcNAc
# Procedure, shortened: as §1
binder,measurement,setting,value
B1,glycan array binding signal (z-score),[1],-0.514
same,glycan array binding signal (z-score),[2],0.077
same,glycan array binding signal (z-score),[3],0.205
same,glycan array binding signal (z-score),[4],-0.266
same,glycan array binding signal (z-score),[5],0.072
same,glycan array binding signal (z-score),[6],-0.384
same,glycan array binding signal (z-score),[7],-0.251
same,glycan array binding signal (z-score),[8],-0.103
same,glycan array binding signal (z-score),[9],-0.363
same,glycan array binding signal (z-score),[10],0.521
same,glycan array binding signal (z-score),[11],0.007
same,glycan array binding signal (z-score),[12],-0.124
same,glycan array binding signal (z-score),[13],0.285
same,glycan array binding signal (z-score),[14],-0.589
same,glycan array binding signal (z-score),[15],2.55
same,glycan array binding signal (z-score),[16],0.2
same,glycan array binding signal (z-score),[17],5.42
same,glycan array binding signal (z-score),[18],-0.315
same,glycan array binding signal (z-score),[19],0.243
same,glycan array binding signal (z-score),[20],0.258
same,glycan array binding signal (z-score),[21],-0.189
same,glycan array binding signal (z-score),[22],0.17
same,glycan array binding signal (z-score),[23],0.483
same,glycan array binding signal (z-score),[24],1.06
same,glycan array binding signal (z-score),[25],-0.363
same,glycan array binding signal (z-score),[26],0.521
same,glycan array binding signal (z-score),[27],0.063
same,glycan array binding signal (z-score),Neu5Ac(a2-6)GalNAc,-0.255
same,glycan array binding signal (z-score),[28],-0.642
same,glycan array binding signal (z-score),[29],-0.594
same,glycan array binding signal (z-score),[30],-0.441
